In PubChem BioAssay (NCATS):
The shares of active, inactive and inconclusive entries below differ from those in the screen. A potency beside an inconclusive call is a rough fit, not a confirmed value. The source made the active and inactive calls. The call rests on the fitted dose curve; in most records, active means well fitted curve in the direction sought with a large enough effect; inconclusive means small, poorly fitted or top-dose-only effect, or another doubt; inactive means no such curve, though single readings can be large; an effect the other way counts as inactive or inconclusive.

Experiments:
[1] = Quantitative highthroughput screen to assess conditional lethalithy of NOMO1 cells grown in RPMI1640 with untreated serum (RPMI+s) (AID 1963876); conditions: NOMO1 AML cells in RPMI+serum, CellTiter-Glo viability, 48 h; viability: at 45.8 µM (top of the series); further: nearly all actives have a fitted effect of over 35% in size
Summary of the method: (§1)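 Each medium arm—HPLM with 10% dialyzed FBS, or RPMI1640 with 5 mM glucose and 10% untreated or dialyzed FBS—was screened against an 11-point, 3-fold compound titration for 48 h at 37 °C, with CellTiter-Glo luminescence as endpoint.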

[2] = Quantitative highthroughput screen to assess conditional lethalithy of NOMO1 cells grown in RPMI1640 with dialyzed fetal bovine serum (RPMI+ds) (AID 1963877); conditions: NOMO1 in RPMI+dialyzed FBS viability, ATP luminescence, 48 h; series mostly up to 45.8 µM; further: nearly all actives have a fitted effect of over 30% in size
Summary of the method: as §1

[3] = Quantitative highthroughput screen to assess conditional lethalithy of NOMO1 cells grown in Human Plasma-Like Medium with dialyzed fetal bovine serum (HPLM+ds) (AID 1963878); conditions: NOMO1 AML cells in HPLM+ds, CellTiter-Glo viability, 48 h; viability: at 45.8 µM (top of the series); further: nearly all actives have a fitted effect of over 35% in size
Summary of the method: as §1

[4] = Quantitative highthroughput screen to assess conditional lethalithy of SEM cells grown in Human Plasma-Like Medium with dialyzed fetal bovine serum (HPLM+ds) (AID 1963882); conditions: SEM B-ALL cells in HPLM+ds, CellTiter-Glo viability, 48 h; series mostly up to 45.8 µM; further: nearly all actives have a fitted effect of over 35% in size
Summary of the method: as §1

[5] = Quantitative highthroughput screen to assess conditional lethalithy of SEM cells grown in RPMI1640 with unreated serum (RPMI+s) (AID 1963883); conditions: SEM B-ALL cells, CellTiter-Glo viability, 48 h; viability: at 45.8 µM (top of the series); further: nearly all actives have a fitted effect of over 35% in size
Summary of the method: as §1

[6] = Quantitative highthroughput screen to assess conditional lethalithy of P12 Ichikawa cells grown in RPMI1640 with untreated serum (RPMI+s) (AID 1963881); conditions: ATP luminescence, 48 h; Potency: viability; series mostly up to 45.8 µM; further: nearly all actives have a fitted effect of over 35% in size
Summary of the method: as §1

[7] = Quantitative highthroughput screen to assess conditional lethalithy of SEM cells grown in RPMI1640 with dialyzed fetal bovine serum (RPMI+ds) (AID 1963884); conditions: SEM B-ALL cells, RPMI+dialyzed FBS, CellTiter-Glo viability, 48 h; viability: at 45.8 µM (top of the series); further: nearly all actives have a fitted effect of over 35% in size
Summary of the method: as §1

[8] = Quantitative highthroughput screen to assess conditional lethalithy of P12 Ichikawa cells grown in RPMI1640 with dialyzed fetal bovine serum (RPMI+ds) (AID 1963880); conditions: ATP luminescence, 48 h; Potency: P12-Ichikawa viability; series mostly up to 45.8 µM; further: nearly all actives have a fitted effect of over 35% in size
Summary of the method: as §1

[9] = Cellular viability qHTS for adrenocortical cancer (ACC) cell line NCI-H295R (AID 1963990); conditions: CellTiter-Glo ATP luminescence, 48 h; series mostly up to 46.1 µM; further: nearly all actives have a fitted effect of over 60% in size
Summary of the method: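 Viability of NCI-H295R after 48 h of treatment (final up to 46 uM) measured through cellular ATP luminescence.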

[10] = Cellular viability qHTS for adrenocortical cancer (ACC) cell line SW-13 (AID 1963989); conditions: SW-13 ACC cells viability, CellTiter-Glo, 48 h; activity (max response): active compounds read low; further: nearly all actives have a fitted effect of over 65% in size
Summary of the method: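 Here, serum-free SW-13 cultures were dosed up to 46 uM. Following 48 h, ATP-dependent luminescence (CellTiter-Glo) reported viable cells, and logistic modeling produced IC50 values.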
Potency means the concentration at half of the fitted maximal effect.

Row | SMILES | Potency [1] | Potency [2] | Potency [3] | Potency [4] | Potency [5] | Potency [6] | Potency [7] | Potency [8] | Potency [9] | Potency [10]
1 | C[C@H]1O[C@@H](n2cc(F)c(=O)[nH]c2=O)[C@H](O)[C@H]1O | inactive | inconclusive: 18700 nM [cytotoxic, partial curve] | inconclusive: 20900 nM [cytotoxic, partial curve, poor fit] | inconclusive: 23500 nM [cytotoxic, single point] | inconclusive: 20900 nM [cytotoxic, single point] |  |  |  |  | 
2 | COc1cc(OC)c(C=CS(=O)(=O)Cc2ccc(OC)c(NCC(=O)O)c2)c(OC)c1 | inconclusive: 264 nM [cytotoxic, full curve] | inconclusive: 132 nM [cytotoxic, full curve] | inconclusive: 132 nM [cytotoxic, full curve] | inconclusive: 209 nM [cytotoxic, full curve] |  |  |  |  |  | 
3 | O=S(=O)(N=Cc1c(O)ccc2ccccc12)c1cccs1 | inactive | inconclusive: 10500 nM [cytotoxic, partial curve, poor fit] | inconclusive: 20900 nM [cytotoxic, partial curve, poor fit] |  | inconclusive: 18700 nM [cytotoxic, partial curve, poor fit] | inactive | inactive |  |  | 
4 | NS(=O)(=O)c1ccc(Nc2nc(OCC3CCCCC3)c3[nH]cnc3n2)cc1 | inconclusive: 526 nM [cytotoxic, full curve] | active: 590 nM | inconclusive: 148 nM [cytotoxic, full curve] |  |  |  |  | active: 296 nM | inconclusive: 35500 nM [cytotoxic, single point] | 
5 | O=C(C=Cc1cccnc1)NCCCCC1CCN(C(=O)c2ccccc2)CC1 | active: 5.9 nM | active: 3.3 nM | active: 2.6 nM | inconclusive: 5.3 nM [cytotoxic, full curve] | active: 2.6 nM | active: 4.7 nM | active: 1.9 nM |  |  | 
6 | CC=C1C2C=C(C)CC1(N)c1ccc(=O)[nH]c1C2 (stereo not drawn) | inactive | inactive | inactive |  |  | inactive |  |  |  | 
7 | CC(C)OC(=O)[C@H](C)N[P@](=O)(OC[C@H]1O[C@@H](n2ccc(=O)[nH]c2=O)[C@](C)(F)[C@H]1O)Oc1ccccc1 | inconclusive: 7430 nM [cytotoxic, full curve] | inconclusive: 7430 nM [cytotoxic, full curve] | inconclusive: 2090 nM [cytotoxic, full curve] | active: 4690 nM | active: 6620 nM |  | active: 8330 nM | active: 4690 nM |  | 
8 | Cc1cc(C(=O)NOCCO)c(Nc2ccc(I)cc2F)n(C)c1=O | inconclusive: 16.6 nM [cytotoxic, full curve] | inconclusive: 23.5 nM [cytotoxic, full curve] | inconclusive: 10.5 nM [cytotoxic, full curve] | active: 66.2 nM | inactive |  |  |  |  | 
9 | CON=C(C(=O)N[C@@H]1C(=O)N2C(C(=O)O)=C(CSC(=O)c3ccco3)CS[C@H]12)c1csc(N)n1 | inconclusive: 4690 nM [cytotoxic, full curve, poor fit] | inconclusive: 16600 nM [cytotoxic, partial curve] | inconclusive: 2640 nM [cytotoxic, full curve] | inactive |  |  |  | inactive |  | 
10 | C[C@@]1(C(=O)Nc2ccc(F)nc2)CCCN1c1nc(Nc2cc(C3CC3)[nH]n2)c2cccn2n1 | inconclusive: 1870 nM [cytotoxic, full curve] | inconclusive: 1180 nM [cytotoxic, full curve] | inconclusive: 590 nM [cytotoxic, full curve] | active: 4180 nM | inconclusive: 2960 nM [cytotoxic, full curve] |  |  | inconclusive: 2640 nM [cytotoxic, full curve] | active: 199 nM | inconclusive: 4470 nM [cytotoxic, partial curve]
11 | Cc1cccc2c1CC[C@H](CN1CCC(c3c(Cl)cccc3Cl)CC1)C[C@@H]2O | inconclusive: 3720 nM [cytotoxic, full curve] | inconclusive: 2350 nM [cytotoxic, full curve] | active: 8330 nM | inconclusive: 11800 nM [cytotoxic, partial curve, poor fit] | inconclusive: 8330 nM [cytotoxic, full curve] | inconclusive: 3720 nM [cytotoxic, full curve] | inconclusive: 11800 nM [cytotoxic, partial curve] |  |  | 

Some of these compounds in order of number of heavy atoms, smallest number first:
Row | SMILES | Potency [1] | Potency [2] | Potency [3] | Potency [4] | Potency [5] | Potency [6] | Potency [7] | Potency [8] | Potency [9] | Potency [10]
3 | O=S(=O)(N=Cc1c(O)ccc2ccccc12)c1cccs1 | inactive | inconclusive: 10500 nM [cytotoxic, partial curve, poor fit] | inconclusive: 20900 nM [cytotoxic, partial curve, poor fit] |  | inconclusive: 18700 nM [cytotoxic, partial curve, poor fit] | inactive | inactive |  |  | 
11 | Cc1cccc2c1CC[C@H](CN1CCC(c3c(Cl)cccc3Cl)CC1)C[C@@H]2O | inconclusive: 3720 nM [cytotoxic, full curve] | inconclusive: 2350 nM [cytotoxic, full curve] | active: 8330 nM | inconclusive: 11800 nM [cytotoxic, partial curve, poor fit] | inconclusive: 8330 nM [cytotoxic, full curve] | inconclusive: 3720 nM [cytotoxic, full curve] | inconclusive: 11800 nM [cytotoxic, partial curve] |  |  | 
9 | CON=C(C(=O)N[C@@H]1C(=O)N2C(C(=O)O)=C(CSC(=O)c3ccco3)CS[C@H]12)c1csc(N)n1 | inconclusive: 4690 nM [cytotoxic, full curve, poor fit] | inconclusive: 16600 nM [cytotoxic, partial curve] | inconclusive: 2640 nM [cytotoxic, full curve] | inactive |  |  |  | inactive |  | 
